PubChem BioAssay AID504764, Drosophila RNAi Screening Center | 2011
Assay: 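Knock-downs that raise or lower a Notch target reporter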 (primary screen). System: Drosophila Kc167 cells. Reagent: long dsRNA against Drosophila genes. Duration: about 5 days (4 days dsRNA, then 24 h after transfection). Treatment: transfection of constitutively active membrane-tethered Notch lacking the extracellular domain, read 24 h later. Read-out: 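Firefly luciferase from an E(spl)m3 reporter with active Notch, plus control-promoter and uninduced reporter wells for normalisation; unnormalised counts, duplicate wells a and b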. Scale: induced reporter light, run 1, well a and induced reporter light, run 1, well b: higher = more light from the Notch target reporter with active Notch; control promoter light, run 1, well a and control promoter light, run 1, well b: higher = more light from the viral control promoter (cell number, transfection, viability); uninduced reporter light, run 1, well a: higher = more light from the Notch target reporter without active Notch. Active means: 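Wells with low control signal or poorly matching duplicates excluded; duplicates averaged; per source plate, z beyond ±2 for induced/control log2 ratio or beyond ±1.8 for induced/uninduced marks a hit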. Calls: active = modifier hit (raised or lowered Notch signal); inactive = not a hit.
The screen tested about 22,000 reagents; shown is a random part of those that have a named target and a result. Of all reagents, 403 (1.9%) were called active. 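Unnormalised raw counts per well; ratio z-scores behind the hit calls and whether each hit raises or lowers signal are not deposited.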 Reagents against one gene are numbered here. Reagent sequences are not shown. Not given: the amount of reagent.

CG6425 — induced reporter light, run 1, well a: 1.58e5; induced reporter light, run 1, well b: 1.69e5; control promoter light, run 1, well a: 1.81e5; control promoter light, run 1, well b: 1.86e5; uninduced reporter light, run 1, well a: 12720; Outcome: inactive
Tif-IA #1 — induced reporter light, run 1, well a: 1.92e5; induced reporter light, run 1, well b: 1.92e5; control promoter light, run 1, well a: 1.43e5; control promoter light, run 1, well b: 1.52e5; uninduced reporter light, run 1, well a: 14080; Outcome: inactive
Tif-IA #2 — induced reporter light, run 1, well a: 44365; induced reporter light, run 1, well b: 37950; control promoter light, run 1, well a: 53600; control promoter light, run 1, well b: 36390; uninduced reporter light, run 1, well a: 2865; Outcome: inactive
bora (aurora borealis) — induced reporter light, run 1, well a: 94800; induced reporter light, run 1, well b: 73315; control promoter light, run 1, well a: 49225; control promoter light, run 1, well b: 48470; uninduced reporter light, run 1, well a: 6065; Outcome: inactive

2 successive records from above, for reference:
CG6425 — induced reporter light, run 1, well a: 1.58e5; induced reporter light, run 1, well b: 1.69e5; control promoter light, run 1, well a: 1.81e5; control promoter light, run 1, well b: 1.86e5; uninduced reporter light, run 1, well a: 12720; Outcome: inactive
Tif-IA #1 — induced reporter light, run 1, well a: 1.92e5; induced reporter light, run 1, well b: 1.92e5; control promoter light, run 1, well a: 1.43e5; control promoter light, run 1, well b: 1.52e5; uninduced reporter light, run 1, well a: 14080; Outcome: inactive

Further records:
Mkk4 (MAP kinase kinase 4) — induced reporter light, run 1, well a: 1.17e5; induced reporter light, run 1, well b: 1.14e5; control promoter light, run 1, well a: 1.02e5; control promoter light, run 1, well b: 1.05e5; uninduced reporter light, run 1, well a: 7465; Outcome: inactive
dpr19 (defective proboscis extension response 19) — induced reporter light, run 1, well a: 1.24e5; induced reporter light, run 1, well b: 1.48e5; control promoter light, run 1, well a: 91825; control promoter light, run 1, well b: 1.04e5; uninduced reporter light, run 1, well a: 19670; Outcome: inactive
CG34320 (retired record) — induced reporter light, run 1, well a: 51250; induced reporter light, run 1, well b: 70490; control promoter light, run 1, well a: 59130; control promoter light, run 1, well b: 68085; uninduced reporter light, run 1, well a: 4260; Outcome: inactive
crim (crimpled) — induced reporter light, run 1, well a: 1.53e5; induced reporter light, run 1, well b: 1.49e5; control promoter light, run 1, well a: 78580; control promoter light, run 1, well b: 22015; uninduced reporter light, run 1, well a: 9420; Outcome: active
CG18810 — induced reporter light, run 1, well a: 48710; induced reporter light, run 1, well b: 50205; control promoter light, run 1, well a: 52505; control promoter light, run 1, well b: 47065; uninduced reporter light, run 1, well a: 2555; Outcome: inactive
fos28F (retired record) — induced reporter light, run 1, well a: 1.63e5; induced reporter light, run 1, well b: 1.91e5; control promoter light, run 1, well a: 1.19e5; control promoter light, run 1, well b: 1.48e5; uninduced reporter light, run 1, well a: 26610; Outcome: inactive
CAH8 (Carbonic anhydrase 8) — induced reporter light, run 1, well a: 1.82e5; induced reporter light, run 1, well b: 1.76e5; control promoter light, run 1, well a: 1.95e5; control promoter light, run 1, well b: 1.99e5; uninduced reporter light, run 1, well a: 11475; Outcome: inactive
CG11149 — induced reporter light, run 1, well a: 1.65e5; induced reporter light, run 1, well b: 1.11e5; control promoter light, run 1, well a: 1.82e5; control promoter light, run 1, well b: 1.74e5; uninduced reporter light, run 1, well a: 11095; Outcome: active
